According to patent US20030108484A1, “Individualization of therapy with antineoplastic agents” (McGill University, priority 2001, published 2003):

Test system: 1X-Ab
Experiment: Effect of the ratio 1U:1X on the determination of 1X concentration by ELISA
Assay type: binding, rabbit
Details: fixed 1X 3 × 10^−6 M

Structure (SMILES): Cn1c(=O)[nH]c2nc[nH]c2c1=O [1-Methyl Xanthine (1X), 1-Methyl Xanthine]
- [1X] × 10^6 (M) (1U:1X ratio 0.0): 3.00 × 10^6 (M)
- [1X] × 10^6 (M) (1U:1X ratio 0.50): 2.75 × 10^6 (M)
- [1X] × 10^6 (M) (1U:1X ratio 1.00): 3.25 × 10^6 (M)
- [1X] × 10^6 (M) (1U:1X ratio 1.50): 3.25 × 10^6 (M)
- [1X] × 10^6 (M) (1U:1X ratio 2.00): 3.60 × 10^6 (M)
- [1X] × 10^6 (M) (1U:1X ratio 2.50): 3.65 × 10^6 (M)
- [1X] × 10^6 (M) (1U:1X ratio 3.00): 3.95 × 10^6 (M)
- [1X] × 10^6 (M) (1U:1X ratio 4.00): 4.20 × 10^6 (M)
- [1X] × 10^6 (M) (1U:1X ratio 5.00): 4.30 × 10^6 (M)
- [1X] × 10^6 (M) (1U:1X ratio 6.00): 4.50 × 10^6 (M)
- [1X] × 10^6 (M) (1U:1X ratio 8.00): 4.30 × 10^6 (M)
